Source: patent US20140086904A1 (CHENGDU KANGHONG BIOTECHNOLOGIES, published 2014)
Results are given in words; binding and its absence hold for the method and conditions named. Some binding calls cover weakened binding; strength is not graded here.

Protein sequences, listed by entry. Tags and fused reporters are not part of them. Residues count along the entry.
UniProt P01375, residues 77-233: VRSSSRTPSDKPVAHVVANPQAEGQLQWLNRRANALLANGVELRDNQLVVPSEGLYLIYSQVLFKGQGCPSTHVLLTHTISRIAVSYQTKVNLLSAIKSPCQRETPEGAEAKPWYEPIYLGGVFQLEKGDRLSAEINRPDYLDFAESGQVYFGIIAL

Assays:
[1] = biological target: human tumor necrosis factor-α (R & D Co., Catalog Number: 210-TA-050) (human) (UniProt P01375); experiment: ELISA on coated human TNF-α
[2] = biological target: human tumor necrosis factor-α (R & D Co., Catalog Number: 210-TA-050) (human) (UniProt P01375); experiment: ELISA, plate coated with human TNF-α (100 ng per well), 2-fold dilutions of Fab from 40 nM, HRP goat anti-human C-kappa, OD450

B1: KS-2E (Fab, V domains shown)
VH: QVQLVESGGGLVKPGGSLRLSCAASGFTFSNAWMNWVRQAPGKGLEWVAEIRSKSINSATHYAESVKGRFTISRDNSKKTLYLEMNSLRVEDTAVYYCSRNYYGSTYQYWGQGTTLTVSS
VL: EIVLTQSPDFQSVSPKETVTITCRASQTVHMSLHWYQQKPNQSPRLLIKYGSQSFSGVPSRFSGSGSGTDFTLTINSLEPEDAATYYCQQSHKWPFTFGSGTNVDIKR
notes: Humanized Fab (heavy chain Fd fragment and light chain), expressed in E. coli periplasm
[1]
  binding: binds
[2]
  binding: binds
